Here are results for three substances from US5470830A (Ohmeda Pharmaceutical Products Division Inc., priority 1993, dated 1995).

Series [1] is described as follows: solid-phase peptide synthesis. The settings on record: whole synthesis.
Series [2] in a line: general procedure: peptide synthesis; Fmoc-L-Gln(Mbh)PepSyn KA resin; MBHA resin; Fmoc-L-Gln(Trt)PAC resin; Pfp esters of Fmoc amino acids; DIC preactivation for Boc amino acids. The settings on record: whole synthesis, 214 nm.
Series [3] is described as follows: Fmoc solid-phase peptide synthesis in flow; Fmoc-L-Gln(Trt)PAC; Pfp esters of Fmoc amino acids; DIC preactivation for Boc amino acids. To be noted: whole synthesis.
Series [4] can be described thus: Fmoc solid-phase peptide synthesis in flow; Fmoc-L-Gln(Mbh)PepSyn KA; Pfp esters of Fmoc amino acids; DIC preactivation for Boc amino acids. The settings on record: whole synthesis.

Strings that start with PEPTIDE1 are HELM notation: dots part the residues, brackets hold end groups and non-standard residues. For some of these results: One purity is given for all peptides; the source may state it once.

“PEPTIDE1{F.V.F.I.F.T.Y.G.E.L.Q.R.[am]}$$$$V2.0”: the isolated yield in series [1] worked out at 21%. Also, the “final HPLC purity” value in series [2] is recorded as over 95%.
For “PEPTIDE1{[NMePhe].V.F.I.F.T.Y.G.E.L.Q.R.L.Q}$$$$V2.0”, the isolated yield in series [3] was 18%. Also, the “final HPLC purity” value in series [2] was over 95%.
In series [4], “PEPTIDE1{F.V.F.I.F.T.Y.G.E.L.Q.R.L.Q.E.K.E.R.N.K.G.Q}$$$$V2.0” displayed a crude yield of 70% and an isolated yield of 27%. In addition, the “final HPLC purity” value in series [2] is on record as over 95%.
